Reference: PubChem BioAssay AID1508597 (Cure First, 2020)

Aim: 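Genes whose silencing sensitises or protects ovarian cancer cells against rucaparib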 (primary screen)
Cells: human ovarian carcinoma lines grown from tumours: OCI-P5x (papillary serous) and OCI-C5x (clear cell)
Reagent: siRNA pool against human genes, 1.25 pmol siRNA per well
Time to read-out: 72 h or 96 h, depending on the cell culture
Treatment: rucaparib 20 µM (about IC30) or vehicle, present until read-out
Rucaparib or vehicle: Vehicle
Cell line: OCI-C5x (clear cell)
Read-out: 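ATP luminescence measured at 72 or 96 h according to the culture, then normalised and expressed as percent viability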
Reading the numbers: viability, normalised: higher = more viable cells remaining
Hit rule: 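Active when normalised viability falls below 80 percent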
Meaning of the calls: active = viability under 80%; inactive = viability 80% or more
Shown is an unselected part of the about 2,100 reagents, in one setting of the screen. 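Calls flag viability under 80% in either arm, not effects specific to rucaparib; the reference for percent is not stated.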 Entries without a mark were called inactive. A reagent listed more than once was tested more than once; the source does not tell the runs apart. No sequences are given here. Not stated in the record: the 100% reference.

gene symbol | technical replicate | viability, normalised (%)
PRKCZ | 1 | 81.3
PRKCZ | 2 | 66 (active)
PRKCZ | 3 | 64.3 (active)
PDK4 | 1 | 64.8 (active)
PDK4 | 2 | 57.2 (active)
PDK4 | 3 | 51.4 (active)
JAK2 | 1 | 47.7 (active)
JAK2 | 1 | 83.5
JAK2 | 2 | 89.6
JAK2 | 2 | 58.2 (active)
JAK2 | 3 | 56.8 (active)
JAK2 | 3 | 97.8
L3MBTL2 | 1 | 34.4 (active)
L3MBTL2 | 2 | 34.3 (active)
L3MBTL2 | 3 | 44.8 (active)
FOS | 1 | 37.1 (active)
FOS | 2 | 29.5 (active)
FOS | 3 | 59.3 (active)
RAD21 | 1 | 48.8 (active)
RAD21 | 1 | 51.8 (active)
RAD21 | 2 | 47.5 (active)
RAD21 | 2 | 51.1 (active)
RAD21 | 3 | 52.1 (active)
RAD21 | 3 | 37.5 (active)

A stretch taken from the entries so far:
gene symbol | technical replicate | viability, normalised (%)
JAK2 | 2 | 58.2 (active)
JAK2 | 3 | 56.8 (active)
JAK2 | 3 | 97.8
L3MBTL2 | 1 | 34.4 (active)
L3MBTL2 | 2 | 34.3 (active)
L3MBTL2 | 3 | 44.8 (active)
FOS | 1 | 37.1 (active)
FOS | 2 | 29.5 (active)
FOS | 3 | 59.3 (active)

Further entries:
gene symbol | technical replicate | viability, normalised (%)
CDK9 | 1 | 49 (active)
CDK9 | 2 | 39 (active)
CDK9 | 3 | 40.9 (active)
POU4F1 | 1 | 34.8 (active)
POU4F1 | 2 | 45.7 (active)
POU4F1 | 3 | 47 (active)
CDK10 | 1 | 66.9 (active)
CDK10 | 2 | 77.7 (active)
CDK10 | 3 | 47.1 (active)
WNT5A | 1 | 46.5 (active)
WNT5A | 2 | 60.1 (active)
WNT5A | 3 | 51.3 (active)
SUPT7L | 1 | 56.5 (active)
SUPT7L | 2 | 42.3 (active)
SUPT7L | 3 | 41.4 (active)
SULT1A2 | 1 | 54 (active)
SULT1A2 | 2 | 45.2 (active)
SULT1A2 | 3 | 47.4 (active)
DHX37 | 1 | 34.7 (active)
DHX37 | 2 | 50.8 (active)
DHX37 | 3 | 45.5 (active)
BAP1 | 1 | 116
BAP1 | 1 | 30.9 (active)
BAP1 | 2 | 29.6 (active)
BAP1 | 2 | 45.2 (active)
BAP1 | 3 | 30.2 (active)
BAP1 | 3 | 49.7 (active)
SMC1B | 1 | 38.2 (active)
SMC1B | 2 | 47.2 (active)
SMC1B | 3 | 44.4 (active)
BCOR | 1 | 42.1 (active)
BCOR | 2 | 34.2 (active)
BCOR | 3 | 42.4 (active)
